{
  "source": "patent US5747253",
  "target": "T1, c-Rel (NF-kB site binding factor) (UniProt Q04864)",
  "T1 sequence (looked up, limits assumed)": "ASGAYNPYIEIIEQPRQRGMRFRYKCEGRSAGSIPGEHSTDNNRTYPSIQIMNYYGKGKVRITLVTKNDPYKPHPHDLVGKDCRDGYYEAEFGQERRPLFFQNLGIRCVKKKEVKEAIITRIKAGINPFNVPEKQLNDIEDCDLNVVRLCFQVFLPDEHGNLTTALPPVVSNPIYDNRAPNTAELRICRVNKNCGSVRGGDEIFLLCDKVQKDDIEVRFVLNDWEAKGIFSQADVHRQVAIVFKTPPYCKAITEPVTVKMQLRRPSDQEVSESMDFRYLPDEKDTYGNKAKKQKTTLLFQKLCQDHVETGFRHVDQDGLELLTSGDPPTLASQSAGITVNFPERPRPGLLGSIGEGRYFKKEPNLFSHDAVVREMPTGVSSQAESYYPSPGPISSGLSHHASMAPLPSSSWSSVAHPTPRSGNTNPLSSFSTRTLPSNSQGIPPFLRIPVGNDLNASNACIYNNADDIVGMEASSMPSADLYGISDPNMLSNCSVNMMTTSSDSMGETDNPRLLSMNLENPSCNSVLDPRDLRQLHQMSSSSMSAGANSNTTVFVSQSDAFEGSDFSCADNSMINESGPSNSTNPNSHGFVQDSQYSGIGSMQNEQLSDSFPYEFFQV",
  "experiment": "ELONA",
  "details": "PS; protein in an extract; label: 3' biotin",
  "note": "Construct, isoform or probe ends are uncertain for at least one entry. Where cells or extracts were used, other partners may take part. Where a protein sequence is shown, tags need not be part of it.",
  "data": [
    {"sequence": "GGGGACTTTCCGCTGGGACTTTCTAG / CTGGAAAGTCCCAGCGGAAGGTCCCC [NF-kB binding site]", "values": [
      {"measurement": "binding result", "result": "binds"}
    ]}
  ]
}
